Each structure is given as a SMILES string.

The nature of this data set: 4 h corrosion weight loss test (corrosion inhibition performance). The note with it: 1000 ppm corrosion inhibitor; for Surface morphology: P110 carbon steel after 4 h in 20% hydrochloric acid at 90° C.; for Corrosion rate: P110 carbon steel, 20% hydrochloric acid, 90° C., 4 h. As for the experimental part:
The corrosion inhibition performance of corrosion inhibitors in the embodiments 1 to 4 is determined by a 4 h corrosion weight loss test at 90° C. using 20% hydrochloric acid as a corrosive medium and P110 carbon steels. The amount of corrosion inhibitors is 1000 ppm.

Regarding `O=C(/C=C/c1ccccc1)CC(c1cccc(-c2cccs2)c1)[N+](Cc1ccccc1)(Cc1ccccc1)Cc1ccccc1` (centres unmarked) [Embodiment 1], the Surface morphology entry is “Smooth and flat”; the Corrosion rate was 9.87 gm^−2h^−1.

Regarding `O=C(CC(=C(c1ccccc1)c1ccccc1)c1ccccc1)CC(/C=C/c1ccccc1)[N+]1(Cc2ccc3ccccc3c2)CCCCC1C(c1ccccc1)c1ccccc1` (centres unmarked) [Embodiment 2], the Surface morphology result is “Smooth and flat”; the Corrosion rate stood at 14.71 gm^−2h^−1.

With `O=C(/C=C/c1ccccc1)CC(/C=C/c1ccccc1)[N+]1(C(c2ccccc2)(c2ccccc2)c2ccccc2)C=Cc2ccccc21` (centres unmarked) [Embodiment 3], the Surface morphology result is “Smooth and flat”; the Corrosion rate worked out at 10.16 gm^−2h^−1.

For the molecule `CC(O)C[N+](Cc1ccc2ccccc2c1)(CC(C)O)C(CC(=O)CC(=C(c1ccccc1)c1ccccc1)c1ccccc1)c1cccc(-c2cccs2)c1` (centres unmarked) [Embodiment 4], the Surface morphology entry was “Smooth and flat”; the Corrosion rate was 11.47 gm^−2h^−1.

Values taken from patent US11161811B2, “Process for preparing Mannich base quaternary ammonium salt high-temperature resistant corrosion inhibitor and applications thereof” (SOUTHWEST PETROLEUM UNIVERSITY, priority 2018, dated 2021).
